The text below walks through data of the supplement of paper PMC4604168 (melanoma cell lines).

The structures appear in SMILES notation. Some of the results follow. Repeats are few or missing, and single values can be far off.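 The apoptosis fraction was the count of cleaved-PARP antibody-stained nuclei relative to all DNA-stained nuclei, imaged in 1,536-well plates. Screening doses were set so most cells survived, and baseline and induced cleaved-PARP levels vary greatly across cell lines.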

For this test, the system named is UACC257. In words: cleaved PARP positive nuclei fraction relative to DMSO control; melanoma cells; higher = more apoptosis. The conditions noted are these: library dose: low library concentration; 72 h.
For the compound `C=C(c1ccc(C(=O)O)cc1)c1cc2c(cc1C)C(C)(C)CCC2(C)C` [Bexarotene] + CC(C)(C)c1cnc(CSc2cnc(NC(=O)C3CCNCC3)s2)o1 [SNS-032] (first compound 2 µM, partner dose 0.01 µM), the “cleaved PARP positive nuclei fraction” value was determined as 94.2%.

As to `Cc1cc(Nc2cc(N3CCN(C)CC3)nc(/C=C/c3ccccc3)n2)n[nH]1` + COc1cc(N2CCC(N3CCN(C)CC3)CC2)ccc1Nc1ncc(Cl)c(Nc2ccccc2S(=O)(=O)C(C)C)n1 [NVP-TAE684] (first compound 0.04 µM, partner dose 0.08 µM), the “cleaved PARP positive nuclei fraction” value was determined as 327%.

For the compound `O=C(O)c1ccc2c(c1)nc(Nc1cccc(Cl)c1)c1ccncc12` + Oc1nc(-c2ccc(C(F)(F)F)cc2)nc2c1CSCC2 [XAV939] (first compound 0.4 µM, partner dose 2 µM), the “cleaved PARP positive nuclei fraction” value is 112%.

`Nc1ccn([C@@H]2O[C@H](CO)[C@@H](O)C2(F)F)c(=O)n1` [gemcitabine] + COC(=O)c1sccc1S(=O)(=O)Nc1ccc(Nc2ccccc2)cc1OC [GSK0660] (first compound 0.0004 µM, partner dose 1 µM): the “cleaved PARP positive nuclei fraction” value stood at 79.1%.

As for `CNC(=O)c1cc(Oc2ccc(NC(=O)Nc3ccc(Cl)c(C(F)(F)F)c3)cc2)ccn1` [sorafenib] + CC(C)(C)c1cnc(CSc2cnc(NC(=O)C3CCNCC3)s2)o1 [SNS-032] (first compound 0.4 µM, partner dose 0.01 µM), the “cleaved PARP positive nuclei fraction” value was 46.4%.

As to `Nc1ccn([C@@H]2O[C@H](CO)[C@@H](O)C2(F)F)c(=O)n1` [gemcitabine] + OCCn1cc(-c2cnc3nnn(Cc4ccc5ncccc5c4)c3n2)cn1 [PF04217903] (first compound 0.0004 µM, partner dose 1 µM), the “cleaved PARP positive nuclei fraction” value was found to be 83.3%.

On to `C=C(c1ccc(C(=O)O)cc1)c1cc2c(cc1C)C(C)(C)CCC2(C)C` [Bexarotene] + Cc1ccc(NC(=O)c2cccc(N(C)C)c2)cc1NC(=O)c1ccc(O)cc1 [ZM336372] (first compound 2 µM, partner dose 2 µM), for which the “cleaved PARP positive nuclei fraction” value came to 101%.

For `Nc1nc(F)nc2c1ncn2[C@@H]1O[C@H](CO)[C@@H](O)[C@@H]1O` [fludarabine] + C=CCn1c(=O)c2cnc(Nc3ccc(N4CCN(C)CC4)cc3)nc2n1-c1cccc(C(C)(C)O)n1 [MK1775] (first compound 0.2 µM, partner dose 0.02 µM), the “cleaved PARP positive nuclei fraction” value stood at 504%.

On to `Cc1cc(Nc2cc(N3CCN(C)CC3)nc(/C=C/c3ccccc3)n2)n[nH]1` + Cn1cc(/C=C2\C(=O)Nc3cccnc32)c2ccccc21 [GW441756] (first compound 0.04 µM, partner dose 0.4 µM), for which the “cleaved PARP positive nuclei fraction” value amounted to 97%.

With `CC(C)C[C@H](NC(=O)[C@H](Cc1ccccc1)NC(=O)c1cnccn1)B(O)O` [Bortezomib] + c1cc(-c2cnn3cc(-c4ccc(OCCN5CCCCC5)cc4)cnc23)ccn1 [Dorsomorphin] (first compound 0.001 µM, partner dose 0.4 µM), the “cleaved PARP positive nuclei fraction” value is 272%.

Regarding `Nc1ncn([C@H]2C[C@H](O)[C@@H](CO)O2)c(=O)n1` [decitabine] + Cc1cc([N+](=O)[O-])ccc1NS(=O)(=O)c1cc(Cl)ccc1Cl [FH535] (first compound 0.1 µM, partner dose 1 µM), the “cleaved PARP positive nuclei fraction” value is 126%.

With `Nc1ncn([C@H]2C[C@H](O)[C@@H](CO)O2)c(=O)n1` [decitabine] + O=C(Nc1cccc(Cl)c1)Nc1ncc(CCNc2ncnc3ccsc23)s1 [SNS314] (first compound 0.1 µM, partner dose 0.0008 µM), the “cleaved PARP positive nuclei fraction” value was determined as 195%.

As for `CS(=O)(=O)CCNCc1ccc(-c2ccc3ncnc(Nc4ccc(OCc5cccc(F)c5)c(Cl)c4)c3c2)o1` [lapatinib] + COc1ccc2c(c1)CCC1C2CCC2(C)C(NCCCCCCN3C(=O)C=CC3=O)CCC12 [U73122] (first compound 0.8 µM, partner dose 0.4 µM), the “cleaved PARP positive nuclei fraction” value came to 222%.

`Cc1cc(Nc2cc(N3CCN(C)CC3)nc(/C=C/c3ccccc3)n2)n[nH]1` + CCCCCCCCCCCC1=C(O)C(=O)C=C(O)C1=O [Embelin] (first compound 0.04 µM, partner dose 1.2 µM): the “cleaved PARP positive nuclei fraction” value came to 144%.

Regarding `C[C@@H](Oc1cc(-c2cnn(C3CCNCC3)c2)cnc1N)c1c(Cl)ccc(F)c1Cl` [Crizotinib] + Cc1cc([N+](=O)[O-])ccc1NS(=O)(=O)c1cc(Cl)ccc1Cl [FH535] (first compound 0.2 µM, partner dose 1 µM), the “cleaved PARP positive nuclei fraction” value was 240%.
